Assay results from KR20140018819A.
These are yes or no findings as the source states them, for the method shown. Some binding calls cover weakened binding; strength is not graded here. Where a sequence is shown, tags or fusion partners need not be part of it.

Amino acid sequences for entries named in this document (tags omitted). A change or cut given only in a name is not applied to a line headed by its entry. Chains listed by the source or under a name are the forms on record and can include a tag or linker.
생쥐 간 조직의 TM4SF5 (Q9D8G1, form named): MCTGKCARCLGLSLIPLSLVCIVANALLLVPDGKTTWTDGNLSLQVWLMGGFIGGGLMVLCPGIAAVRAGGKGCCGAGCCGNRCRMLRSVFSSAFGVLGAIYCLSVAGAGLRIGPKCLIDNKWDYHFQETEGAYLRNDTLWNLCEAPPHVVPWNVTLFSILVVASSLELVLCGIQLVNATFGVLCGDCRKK

What was measured:
[1] = molecular target: 생쥐 간 조직의 TM4SF5 (mouse) (UniProt Q9D8G1); assay: immunofluorescence staining of liver sections of CCl4-treated mice, antibody 3㎍/mL
[2] = molecular target: 생쥐 간 조직의 TM4SF5 (mouse) (UniProt Q9D8G1); assay: summary of mouse liver tissue staining (Fig. 15)

binding [1]: binds | binding [2]: binds
B1: 항-TM4SF5 항체 #27 (scFv-Fc) (Fc fusion)
VH: QVQLQQFGAELVRPGASVTLSCKASGYTFTDYEMHWVKQTPVHGLEWIGAIDPETGGTAYNQKFKGKAILTADKSSSTAYMELRSLTSEDSAVYYCTRPYLGYWGQGTTVTVSS
VL: DAVVTQTPLSLPVSLGDQASISCRSSQSLVHSNGNTYLHWYLQKPGQSPKLLIYKVSNRFSGVPDRFSGSGSGTDFTLKISRVEAEDLGVYYCFQGSHIPLTFGAGTKLELK
